Source: patent EP1459757A1, “Immunomodulating polymers” (THE BRIGHAM AND WOMEN'S HOSPITAL, INC., priority 1999, dated 2004)
“Also recorded” adds a separate entry of the source. Part of at least one peptide drawing is inferred or uncertain, most often the ends. Some entries repeat one wording, which the source may state once for all of them. Ends that are not written are not given here. Peptide text beside a SMILES is read from it.

Experiments:
human T cells = experiment: T cell proliferation assay (3H-thymidine uptake); assay type: cell-based; conditions: 20 µg/ml; 6 days post-incubation (Figure 6)
Description: T cell proliferation assays were performed on cells obtained from human leukopacs (discarded white cells from anonymous platelet donors). Mononuclear cells were separated by ficoll-hypaque sedimentation to eliminate red cells and polymorphonuclear leukocytes. The mononuclear layer, which consisted of T cells, B cells, and mononuclear cells, was depleted of B cells and monocytes by passage over nylon wool column. A portion of these cells was saved prior to placement on nylon wool and were used as autologous feeder cells following irradiation with 6.4 kRads with a cesium source for 4.8 min. Nylon passed cells, which were greater than 98% CD3 positive (as determined by FACS analysis) were used as responder cells or further depleted with antibodies to CD4 (OKT4) or CD8 (OKT8) followed by negative selection with magnetic beads. Finberg, RW et al. J Immunol 149:2055 (1992); Haregewoin, A et al. Nature 340:309 (1989). Ten-fold dilutions of PS A were added to human T cells (5x10^4 cells/200 µl) co-cultured with irradiated APCs (2.5 x 10^5/200 µl) for 12 days in U-bottom 96 well plates (Coming-Costar Corp., Cambridge, MA) with RPMI 1640 and 5% fetal calf serum. Nguyen, LH et al. J Virol 66:7067 (1992). At predetermined time points, cells were pulsed with 1 mCi of ^3H-thymidine/well 6 h prior to harvest in order to measure cell proliferation. Cells were washed extensively, harvested, and the amount of radioactive uptake counted by liquid scintillation. The response to PS A typically varied with human T cell donors. […] Data were expressed as the average of triplicate wells ± the standard error of cpm represented. For all proliferation experiments, data represent typical results from at least five different experiments.
Streptococcus pneumoniae type 1 and type 3 capsular polysaccharides were obtained from the ATCC (Rockville, MD), and treated with 2M NaOH for 1 hour at 80°C to remove contaminating cell wall polysaccharide, C substance. Following purification by gel filtration chromatography, the S. pneumoniae polysaccharides were subjected to isoelectric focusing, dialyzed, lyophilized and stored in 3M NaCl to prevent aggregation. T cell proliferation assays were performed as described in Example 2 above, substituting type 1 or type 3 CP for PS A.
Following the T cell proliferation assay of Example 2, K-D peptides (20 µg/ml) of varying size were assessed for their ability to stimulate T cell activation 6 days post-incubation. The S. pneumoniae type 1 CP (20 µg/ml) was included as a positive control.

B. fragilis NCTC 9343 = experiment: Rat model of intraabdominal sepsis, abscess formation after B. fragilis challenge; assay type: in vivo
S. aureus PS 80 = experiment: Rat model of intraabdominal sepsis, abscess formation after S. aureus challenge; assay type: in vivo; conditions: Table 1 Experiment B; 50 µg subcutaneous at -24, 0, +24 h; S. aureus PS 80 1 x 10^7 cfu/rat

Compound	T cell activation by K-D peptides of varying size (human T cells)	protection against abscess formation compared with saline-treated animals (B. fragilis NCTC 9343; 50 µg/dose subcutaneous)	Abscess formation (%) (S. aureus PS 80)	No. animals with abscess/total (S. aureus PS 80)	protection against abscess formation compared with saline-treated animals (B. fragilis NCTC 9343; 5 µg dose subcutaneous)
NCCCC[C@H](N)C(=O)N[C@@H](CC(=O)O)C(=O)O [(K-D)1] (H-Lys-Asp-OH)	did not stimulate T cell activation	–	–	–	–
KDKDKDKDKDKDKDKDKDKD [(K-D)10]	The response was less; also recorded: did not stimulate T cell activation	–	–	–	–
KDKDKDKDKDKDKDKDKDKDKDKDKDKDKD [(K-D)15]	stimulated T cell activation; also recorded: resulted in T cell proliferation	significant level of protection	–	–	–
KDKDKDKDKDKDKDKDKDKDKDKDKDKDKDKDKDKDKDKD [(K-D)20]	stimulated T cell activation; also recorded: resulted in T cell proliferation	significant level of protection	–	–	–
KDKDKDKDKDKDKDKDKDKDKDKDKDKDKDKDKDKDKDKDKDKDKDKDKD [(K-D)25]	stimulated T cell activation; also recorded: resulted in T cell proliferation	significant level of protection	20%	2/10	failed to protect
